This is one part of the list. These are raw signals, not scaled to a control.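 In the initial screen, polymyxin B was used at a concentration that permeabilizes Salmonella's outer membrane but not its inner membrane. Maximum growth was set by DMSO wells with or without polymyxin B. Since plates varied, data were ranked per plate, and compounds giving the lowest OD600 advanced as hits.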
System: Salmonella enterica serovar Typhimurium SL1344
Assay: bacterial growth OD600 after 18 h with compound and polymyxin B; higher = more bacterial growth (less inhibition)
Details: 50 µM, Mueller-Hinton broth

| Compound | bacterial growth OD600 (polymyxin B 0.75 µg/mL) | bacterial growth OD600 (polymyxin B 1 µg/mL) |
| --- | --- | --- |
| O=C(Cc1ccccc1F)Nc1ccc2c(c1)CN(C(=O)Cc1cccnc1)CC2 | 0.759 |  |
| O=C1CC(NS(=O)(=O)c2ccsc2)CN1C1CCCCCC1 (stereo unspecified) |  | 0.895 |
| Cc1oc(-c2ccc(NC(=O)Cc3ccccc3)cc2)nc1CNC(=O)c1ccc2ccccc2n1 | 0.771 |  |
| CSc1ccc(CC2(CCC(=O)N3CCCC(COc4ccccc4F)C3)CCC(=O)N2)cc1 (stereo unspecified) | 0.703 |  |
| O=C(C#Cc1ccccc1)N1CCC(C2(Cc3ccc(F)cc3)NC(=O)N(C3CCOC3)C2=O)CC1 (stereo unspecified) | 0.082 |  |
| COc1ccc(C(=O)N2CCCC2)c(OC2CCN(Cc3ccc(C)c(C)c3)CC2)c1 |  | 1.15 |
| Cc1ccccc1C1(CC(=O)N2CCN(CC(=O)NC(C)C)CC2)CC(=O)N(CCN(C)C)C1=O (stereo unspecified) | 0.874 |  |
| CN(Cc1cccnc1)C(=O)CC(c1ccccc1)c1ccccc1Cl (stereo unspecified) |  | 0.693 |
| CCC1CN(CCNC(=O)[C@H](CC(C)C)NC(C)=O)Cc2cc(OC)ccc2O1 (stereo partly specified) | 0.909 |  |
| O=C(c1cc[n+]([O-])cc1)N1CCC(C2CCN(Cc3cccc(F)c3F)CC2)C1 (stereo unspecified) | 0.874 |  |
| Cc1ccccc1SC1CCN(Cc2nc(-c3ccccc3)no2)CC1 |  | 0.694 |
| COCC(=O)Nc1cnn(-c2ccc(C(=O)NCCc3ccccc3OC)cc2)c1 | 0.805 |  |
| O=C(NCC1CC(Cc2ccc(F)cc2)=NO1)c1scc2c1CCCC2 (stereo unspecified) | 0.287 |  |
| COc1cc(CC2(CCC(=O)NCCc3cccc(Cl)c3)CCC(=O)N2)ccc1F (stereo unspecified) | 0.816 |  |
| Cc1nc(N2CCCC(C(=O)NCC3COc4ccccc4O3)C2)nc2cc(S(C)(=O)=O)ccc12 (stereo unspecified) | 0.766 |  |
| CC(=O)NCC(=O)N1CCCC(CNC(=O)c2ccc(F)cc2)C1 (stereo unspecified) |  | 0.965 |

| Compound | bacterial growth OD600 (polymyxin B 0.75 µg/mL) | bacterial growth OD600 (polymyxin B 1 µg/mL) |
| --- | --- | --- |
| COC(=O)[C@@H](NC(=O)c1cc(COc2cccc(OC)c2)on1)C(C)C | 0.751 |  |
| O=C1O[C@@H]2CN(Cc3cccc4cnccc34)C[C@@H]2N1CCc1ccc(F)cc1 | 0.843 |  |
| CCOC(=O)CNC(=O)N1CCCC(CNS(=O)(=O)Cc2ccccc2)C1 (stereo unspecified) |  | 0.851 |
| CC(C)c1nccn1Cc1cc(C(=O)NCc2nc3ccccc3o2)n[nH]1 |  | 1.18 |
| COc1ccc(CCN2CC(C(=O)N3CCC(c4ccncc4)CC3)CCC2=O)cc1 (stereo unspecified) |  | 0.842 |
| CCn1nc(C)cc1C(=O)NCc1cccnc1N(C)C |  | 0.911 |
| COc1ccccc1CC(=O)Nc1cnn(CC(=O)NCC2(c3ccccc3)CCCC2)c1 | 0.691 |  |
| Cc1cccnc1CN1CCN(C(=O)C2CCN(c3nc(C)c4cc(C(C)C)ccc4n3)CC2)CC1 | 0.8 |  |
| OC1(Cc2cc(-c3ccccc3)no2)CCN(Cc2cc(F)ccc2F)CC1 |  | 0.842 |
| CN(c1ncccc1CNC(=O)C1CCOC1)C1CCCCC1 (stereo unspecified) |  | 0.906 |
| CC(=O)N1CCN(C(=O)CC(c2ccccc2)c2ccccc2Cl)CC1 (stereo unspecified) |  | 0.784 |
| O=C(CCN1CCCO1)NC1CCCN(c2ccc(C(F)(F)F)cn2)C1 (stereo unspecified) |  | 0.928 |
| Cc1cc(C(=O)N2CCC(C3CCN(CC(C)C)CC3)C2)n(C)n1 (stereo unspecified) | 0.821 |  |
| CCN1CCN(C2(C(=O)NC3CCc4ccccc43)Cc3ccccc3C2)CC1 (stereo unspecified) | 0.823 |  |
| O[C@H]1CN(Cc2ccc(-c3ccccc3)cc2)C[C@@H]1N1CCN(c2ccccn2)CC1 |  | 1.18 |

Single entries from the list:
`CN(c1ncccc1CNC(=O)C1CCOC1)C1CCCCC1` (stereo unspecified) | bacterial growth OD600 (polymyxin B 1 µg/mL): 0.906
`CC(C)c1nccn1Cc1cc(C(=O)NCc2nc3ccccc3o2)n[nH]1` | bacterial growth OD600 (polymyxin B 1 µg/mL): 1.18
